{"source": "PubChem BioAssay AID1671195 (Yale University, 2021)", "assay": "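Knockdowns that increase or decrease uptake of fluorescent LDL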 (primary screen)", "cell system": "human Huh7 hepatoma cells", "reagents": "siRNA pool against human genes, 18 nM", "duration": "about 2 to 2.5 days of knockdown, then 8 h LDL uptake", "challenge": "DiI-labelled LDL at 30 µg/ml for 8 h, in lipoprotein-deficient serum medium", "measured": "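Per-cell DiI-LDL intensity by automated imaging; well means scaled to the plate median and given as a robust z-score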", "scale": "robust z-score: higher = more LDL uptake after knockdown", "call rule": "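a gene counts as active if at least two replicate z-scores exceed ±2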", "note": "In all, the deposit lists about 22,000 reagents; shown is an unselected part. About 1,510 of them (6.9%) count as active. 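Active includes knockdowns raising or lowering LDL uptake; positive z-scores mean more uptake, negative mean less.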"}
{"Gene": "STX19", "PubChem SID": "SID442883826", "robust z-score, replicate 1": 2.55, "robust z-score, replicate 2": 2.34, "robust z-score, replicate 3": 1.9, "activity call": "active"}
{"Gene": "PRKCQ-AS1", "PubChem SID": "SID442899002", "robust z-score, replicate 1": -0.385, "robust z-score, replicate 2": -0.429, "robust z-score, replicate 3": -0.881, "activity call": "inactive"}
{"Gene": "IGHMBP2", "PubChem SID": "SID442903100", "robust z-score, replicate 1": -1.43, "robust z-score, replicate 2": -0.993, "robust z-score, replicate 3": -1.23, "activity call": "inactive"}
{"Gene": "ICAM4", "PubChem SID": "SID442892006", "robust z-score, replicate 1": 0.868, "robust z-score, replicate 2": 0.276, "robust z-score, replicate 3": -0.482, "activity call": "inactive"}
{"Gene": "SCN11A", "PubChem SID": "SID442883293", "robust z-score, replicate 1": 3.31, "robust z-score, replicate 2": 3.68, "robust z-score, replicate 3": 3.16, "activity call": "active"}
{"Gene": "ABHD15", "PubChem SID": "SID442884074", "robust z-score, replicate 1": 1.38, "robust z-score, replicate 2": 2.24, "robust z-score, replicate 3": 2.4, "activity call": "active"}
{"Gene": "ANAPC1P6", "PubChem SID": "SID442903975", "robust z-score, replicate 1": -1.27, "robust z-score, replicate 2": -1.48, "robust z-score, replicate 3": -1.61, "activity call": "inactive"}
{"Gene": "LOC340511 (retired record)", "PubChem SID": "SID442890601", "robust z-score, replicate 1": 0.491, "robust z-score, replicate 2": 0.384, "robust z-score, replicate 3": 0.304, "activity call": "inactive"}
{"Gene": "GNB5", "PubChem SID": "SID442883583", "robust z-score, replicate 1": 2.11, "robust z-score, replicate 2": 3.41, "robust z-score, replicate 3": 2.36, "activity call": "active"}
{"Gene": "LOC441504 (retired record)", "PubChem SID": "SID442894076", "robust z-score, replicate 1": -0.209, "robust z-score, replicate 2": 0.187, "robust z-score, replicate 3": -0.0482, "activity call": "inactive"}
{"Gene": "BDNF", "PubChem SID": "SID442893790", "robust z-score, replicate 1": -0.889, "robust z-score, replicate 2": -0.733, "robust z-score, replicate 3": 1.65, "activity call": "inactive"}
{"Gene": "GPR137C", "PubChem SID": "SID442892710", "robust z-score, replicate 1": -0.000604, "robust z-score, replicate 2": 0.358, "robust z-score, replicate 3": 0.0395, "activity call": "inactive"}
